Test results taken from PubChem BioAssay AID743255 (National Center for Advancing Translational Sciences (NCATS), 2014).
The campaign covered roughly 390,000 compounds. About 910 (0.23%) were called active. Inconclusive means that the source gave no clear call. Such entries were picked first, then a sample of the others. Calls follow the shape of the dose curve; as a rule, active = well fitted inhibition curve with a large enough effect; inconclusive = small, poorly fitted or top-dose-only effect; inactive = no such curve, though single readings can be large or run the other way. Where the call is inconclusive, the potency comes from a doubtful curve fit.

Protein sequences, listed by entry. Tags and fused reporters are not part of them. Lines headed by an entry give the natural chain unless they say otherwise; changes in a name come on top.
UniProt O94782: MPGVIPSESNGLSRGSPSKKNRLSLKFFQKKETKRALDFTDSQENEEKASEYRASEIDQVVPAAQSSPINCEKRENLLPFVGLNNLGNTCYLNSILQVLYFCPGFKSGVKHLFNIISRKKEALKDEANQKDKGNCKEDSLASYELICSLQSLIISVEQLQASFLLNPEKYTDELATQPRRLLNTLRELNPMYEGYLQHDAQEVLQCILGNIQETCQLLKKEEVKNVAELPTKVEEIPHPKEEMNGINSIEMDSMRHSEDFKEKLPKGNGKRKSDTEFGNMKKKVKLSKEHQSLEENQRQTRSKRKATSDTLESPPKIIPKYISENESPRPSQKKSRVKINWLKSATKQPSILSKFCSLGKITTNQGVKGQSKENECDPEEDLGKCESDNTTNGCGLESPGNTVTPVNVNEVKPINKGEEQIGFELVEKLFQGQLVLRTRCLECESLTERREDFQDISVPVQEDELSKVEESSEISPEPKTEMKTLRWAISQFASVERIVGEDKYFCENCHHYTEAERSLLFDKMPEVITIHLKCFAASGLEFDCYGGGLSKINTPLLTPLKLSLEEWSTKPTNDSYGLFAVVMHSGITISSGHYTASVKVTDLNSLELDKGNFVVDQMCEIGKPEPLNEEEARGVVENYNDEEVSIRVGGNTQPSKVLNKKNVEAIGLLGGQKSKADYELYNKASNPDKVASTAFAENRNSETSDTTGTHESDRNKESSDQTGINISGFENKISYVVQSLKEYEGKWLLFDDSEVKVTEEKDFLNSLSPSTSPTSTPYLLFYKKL

target: Ubiquitin carboxyl-terminal hydrolase 1 (Homo sapiens) (UniProt O94782); assay: Inhibitors of USP1/UAF1: Primary Screen; details: recombinant USP1/UAF1, Ub-Rhodamine cleavage fluorescence; activity change, negative = inhibition: at 57.1 µM (top of the series); also: nearly all actives have a fitted effect of over 60% in size
In short: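 USP1/UAF1 complex (1 nM) preincubated 15 min at room temperature with compound, then Ub-Rho substrate (150 nM final) added. Kinetic fluorescence at 480/540 nm over 6 reads at 60 s intervals; 50 mM HEPES pH 7.8, 0.5 mM EDTA, 0.1 mg/ml BSA, 1 mM TCEP, 0.01% Tween-20.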
% is scaled to controls: 0 for no effect and ±100 for the full control effect; potency is read from the fitted curve at half-maximal effect.

Potency, active:
N=c1oc2c3c4c(cc2cc1C(=O)Nc1ccccc1)CCCN4CCC3 10 µM

Potency, inconclusive:
CC(=O)C[C@H]1c2cc(C(F)(F)F)ccc2S(=O)(=O)N1c1ccccc1 70.8 µM [inhibitor, partial curve, poor fit]
Cc1ccc(S(=O)(=O)c2nnn3c2nc(N2CCC(C)CC2)c2cc(Cl)ccc23)cc1C 3.55 µM [inhibitor, partial curve]
CC(Oc1ccc2c(-c3ccccc3)cc(=O)oc2c1)C(=O)N[C@H](Cc1c[nH]c2ccccc12)C(=O)O (stereo not given in full) 39.8 µM [inhibitor, partial curve, poor fit]
CCc1ccc(NC(=O)c2sc3nc(C)c(C(=O)Nc4ccc(C)cc4C)c(-c4ccco4)c3c2N)cc1 39.8 µM [inhibitor, partial curve, poor fit]
Cc1ccc(Cl)cc1N1CCN(CCCNc2ncnc3onc(-c4ccc(Cl)cc4)c23)CC1 17.8 µM [inhibitor, partial curve, poor fit]
O=C(N/N=C/c1cc(Cl)cc([N+](=O)[O-])c1O)c1cc(-c2ccccn2)nc2ccccc12 35.5 µM [inhibitor, single point]
NC(=S)N=Nc1c(O)[nH]c2c(Cl)cc(Cl)cc12 1.78 µM [inhibitor, full curve, poor fit]
COc1ccccc1C(=O)OCc1cc(=O)n2nc(C3CCCCC3)sc2n1 44.7 µM [inhibitor, partial curve, poor fit]
Clc1ccccc1OCCCOc1cccc2cccnc12 11.2 µM [inhibitor, partial curve]
N=c1n(N)c2ccccc2n1CC(=O)c1ccc(Br)cc1 35.5 µM [inhibitor, single point]
O=C(NCc1csc(-c2cccs2)n1)Nc1ccc(C(F)(F)F)cc1 56.2 µM [inhibitor, partial curve, poor fit]
CCNc1nc2[nH]c(=O)c3c(c2s1)OC(N)=C(C#N)C3c1ccc(C)cc1 (stereo not given) 39.8 µM [inhibitor, partial curve]
COc1ccccc1C(=O)Nc1ccc2c(c1)nc(CCNC(=O)c1ccccc1)n2C 44.7 µM [inhibitor, partial curve, poor fit]
Cc1ccc(S(=O)(=O)N2CCC(=O)N(CCOC(=O)Nc3ccc(F)cc3)CC2)cc1 44.7 µM [inhibitor, partial curve]
COc1ccc([C@@H]2CC(=O)c3c(O)cc(O[C@@H]4OC(CO[C@@H]5OC(C)[C@H](O)[C@H](O)C5O)[C@@H](O)[C@@H](O)C4O)cc3O2)cc1O (stereo not given in full) 2000 µM [inhibitor, partial curve, poor fit]
CC(C)Oc1ccc(CNC(=O)C2CCN(Cc3cc4ccccc4n3Cc3ccccc3)CC2)cc1 17.8 µM [inhibitor, partial curve]
CN(c1ccccc1)c1ccc(/C=C/[N+](=O)[O-])cc1 56.2 µM [inhibitor, partial curve, poor fit]
CSc1nsc(/C=C/Nc2ccc(C(=O)O)cc2)c1C#N 35.5 µM [inhibitor, partial curve]
C[C@H](CO)N1C[C@H](C)[C@@H](CN(C)C(=O)Nc2ccc3c(c2)OCO3)Oc2c(NC(=O)Nc3ccc(C(F)(F)F)cc3)cccc2C1=O 50.1 µM [inhibitor, partial curve, poor fit]
CCCCNc1c(C(=O)OCC)c(C)nc2c1cnn2CC 44.7 µM [inhibitor, partial curve]
O=C(CN1C(=O)NC2NC(=O)NC21)N/N=C/c1ccccc1O (stereo not given) 5.62 µM [inhibitor, single point]
O=C(NC(=S)Nc1cccc2c(O)cccc12)c1ccco1 39.8 µM [inhibitor, partial curve]
O=C(C1=C[C@@H](c2ccc(C(F)(F)F)cc2)C[C@@H](OCc2ccc(CO)cc2)O1)N1CCN(Cc2ccccc2)CC1 6.31 µM [inhibitor, partial curve]
CCN(CC)c1ccc(C=Nc2ccc(N(C)C)cc2)c(O)c1 28.2 µM [inhibitor, partial curve]
Cc1cccc(NC(=O)[C@H](Cc2c[nH]c3ccccc23)NC(=O)[C@@H]2Cc3ccccc3CN2)c1 39.8 µM [inhibitor, single point]

Two neighbouring records out of the list so far, quoted:
Potency, inconclusive:
C[C@H](CO)N1C[C@H](C)[C@@H](CN(C)C(=O)Nc2ccc3c(c2)OCO3)Oc2c(NC(=O)Nc3ccc(C(F)(F)F)cc3)cccc2C1=O 50.1 µM [inhibitor, partial curve, poor fit]
CCCCNc1c(C(=O)OCC)c(C)nc2c1cnn2CC 44.7 µM [inhibitor, partial curve]

Next part.

Activity change, negative = inhibition, inactive:
CCC1C(=O)CC(c2ccc([N+](=O)[O-])cc2)NC1c1ccc([N+](=O)[O-])cc1 (stereo not given) -11.7%
O=[N+]([O-])c1ccc(Cl)c(-c2ccc(/C=N/c3c(-c4ccco4)nc4ccccn34)o2)c1 -15.3%
Cc1ccn2c(c1)nc(=O)c1cc(S(=O)(=O)N3CCCCC3)c(Cl)cc12 -28.9%
O=C(Nc1ccccc1)Nc1csc2ccccc12 -25.5%
OC[C@H]1O[C@@H](n2cnc3c(Nc4ccccc4)ncnc32)[C@H](O)[C@@H]1O -4.77%
CCn1c2c(c3cc(C(=O)O)ccc31)CCCC2=O -12.3%
Nc1nonc1C(=O)NCCNCc1ccccc1OCc1ccccc1F -18.1%
CCCOc1cccc(C(=O)Nc2ccc(CN3CCOCC3)cc2)c1 -20.6%
Cc1ccc(C)c(OCCC(=O)OCC(=O)N2CCN(S(=O)(=O)c3ccc(Cl)cc3)CC2)c1 -1.71%
COc1ccc(CCNc2ncnc3cc(OC)c(OC)cc23)cc1OC -23.1%
CC(C)(C)c1ccc(OCCOCCn2c(-c3ccc(Cl)cc3)nc3ccccc3c2=O)cc1 -7.2%
O=c1nc2sc3ccccc3n2c(=O)n1-c1ccc(Cl)cc1 -3.34%
O=C1/C(=C/c2ccccc2)SC(=S)N1CCCC(=O)N1CCCCC1CCO (stereo not given) -15.7%

Activity change, negative = inhibition, inconclusive:
O=C(CCN1C(=O)/C(=C/c2cccs2)SC1=S)Nc1cccc(C(=O)O)c1 -6.96% [inhibitor]
